{
  "source": "paper PMC11365554",
  "molecules": {"B1": {"name": "Myc-tagged PMFBP1 (protein, UniProt Q9WVQ0 1-1022)", "chain": "MLKLKGELRTAKGLKNEAGERDRDVSNLNSKLLSLQLDIKNLHDVCKRQGKTLQENQLCVEEAMLKANHNKKQAQTLVFTDNQMDFRVNKQYHLRQLQQLKKKLLTLQQELEFRTQELQASYCSLLQYQSILEKQTSDLLVLHRHCKLKEDEVILYEEEMGNHSKSTGEKLHLAQEQLALAGDKILSLERSLNLYRDKYQTSLSNIELLECQVKMLEGELSGLIGQDPENKGDHPKVRIYTSPCVIQEHQETLKRLSEVWQKVSEQDDLIQELRNKLACSNSLVLEREEALIKLQAEFASYTATHRHPPTSSEDCEDITKILKHLQEQKDSQCLHVEEYQNLVKDLRMELEAVSEQKKKIMKDMMKLELDLHGLREETSCVIEKKDKETVFLQYRLQDLQQQYTESQKLSLKKDKLLQDKDERLHELEKNLMQVQNSLREKEAELEKLQCTTKELDTSLQEARQSTSKIDCEALRAEIQKLKDSLEEAREQLKVSDQNLTQSKEEAHLSASSLEDAHRKIENCLLQDKQKEEVIKDLQSQLHKLQKESSKIEEERKHNRQRLQELSSELSEGQRRLSNAEKEKSLLQKTLDEDEKKIDELFHSTQVSEQKQRELTNSIRKLEEELLEIKGLLEEKREQLKKSKEQEKALEEEIEALRQEAKRKEKMAKEHLRKLDEEKENLQAELTSRSSHLDSSLNKYNSSQKVIQELNAEIARQKDSIMILQTQLDSAIQKEKNCFQNMVSKEAYEELVRKSGNCQDDLTQALEKLTQATSETKSLNRSLQQTQERKAQLEDEIAAYEERMKKLNMELKKLQGFQQQSEQEVHNFDKKLEEMSNQVLQWQRQHQSDLKMLAAKESQLREFQEEMATLRESLLADEKEPYSPPAKLTPKETCRHHRENDQIMNNVEQWAKEQKIANEKLGNKLREQVKYIAKLTGEKDHLHNVMVHLQQENKKLKNEIEEKKLKAGNPRICVKAFPPNKLEPSQKGKLCCALGWRGIPQDLTPKTDHKYMGLPHSSGSSYC"}},
  "key": {"Myc-tagged SUN5": {"biological_target": "T1, Myc-tagged SUN5 (UniProt Q9DA32)", "T1 sequence": "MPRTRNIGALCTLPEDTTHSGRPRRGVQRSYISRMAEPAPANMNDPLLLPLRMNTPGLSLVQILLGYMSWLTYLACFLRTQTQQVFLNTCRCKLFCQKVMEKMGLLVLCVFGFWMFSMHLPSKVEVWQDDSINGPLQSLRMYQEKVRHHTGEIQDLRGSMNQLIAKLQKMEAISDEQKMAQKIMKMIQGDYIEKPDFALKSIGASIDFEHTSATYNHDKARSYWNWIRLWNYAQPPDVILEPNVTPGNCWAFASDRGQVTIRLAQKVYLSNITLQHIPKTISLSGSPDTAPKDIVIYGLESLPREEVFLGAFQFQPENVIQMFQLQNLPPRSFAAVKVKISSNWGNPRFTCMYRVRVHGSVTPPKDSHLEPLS", "experiment": "co-IP; tagged proteins co-expressed two at a time in HEK293T cells; precipitated by the tag of the bait"}, "Flag-tagged CCDC188": {"biological_target": "Flag-tagged CCDC188", "experiment": "co-IP; tagged proteins co-expressed two at a time in HEK293T cells; precipitated by the tag of the bait"}},
  "note": "No constants are given. Whether binding was seen depends on the method and setting. In cells and extracts the contact can be indirect. A result given as binding can be weak or reduced; the word gives no strength. Where a sequence is shown, tags or fusion partners need not be part of it.",
  "data": [
    {"molecule": "Flag-tagged CCDC188", "values": [
      {"measurement": "binding", "setting": "Myc-tagged SUN5", "result": "binds"}
    ]},
    {"molecule": "B1", "values": [
      {"measurement": "binding", "setting": "Flag-tagged CCDC188", "result": "binds"}
    ]}
  ]
}
